PubChem BioAssay AID1671195 | Yale University, 2021
Shown is one part, drawn at random, of about 22,000 reagents. About 1,510 of them (6.9%) were called active. 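Active includes knockdowns raising or lowering LDL uptake; positive z-scores mean more uptake, negative mean less.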 A number with no mark means an inactive call. Reagents against one gene are numbered here.

- Purpose: 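Regulators of LDL receptor activity judged by labelled LDL uptake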 (primary screen)
- Cells: human Huh7 hepatoma cells
- Reagents: siRNA pool against human genes, 18 nM
- Duration: about 2 to 2.5 days of knockdown, then 8 h LDL uptake
- Challenge: DiI-labelled LDL at 30 µg/ml for 8 h, in lipoprotein-deficient serum medium
- Measurement: 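Fluorescent LDL signal imaged in cells, scaled to the plate median, robust z-score for each replicate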
- Reading the numbers: robust z-score: higher = more LDL uptake after knockdown
- Active means: 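a gene counts as active if at least two replicate z-scores exceed ±2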

target gene	reagent no.	robust z-score, replicate 1	robust z-score, replicate 2	robust z-score, replicate 3
CCDC138 (GeneID 165055)	1	-0.113	-1.07	-1.21
MAP1LC3C (GeneID 440738)	1	-0.698	-0.224	-0.664
NLRC3 (GeneID 197358)	1	-0.00259	0.344	1.12
KRT2 (GeneID 3849)	1	1.62	3.22	1.12
IFNA14 (GeneID 3448)	1	-0.553	-1.11	-0.136
PIWIL4 (GeneID 143689)	1	1.25	0.892	1.3
ZNF233 (GeneID 353355)	1	-0.699	-1.07	-0.629
TBX19 (GeneID 9095)	1	0.242	0.574	0.478
PABPC4 (GeneID 8761)	1	-0.632	-0.877	-0.944
HMCN1 (GeneID 83872)	1	1.24	1.41	3.62
BRWD1 (GeneID 54014)	1	0.159	-0.611	1.01
WSCD1 (GeneID 23302)	1	0.256	1.55	0.741
LOC440867 (retired record) (GeneID 440867)	1	1.39	1.84	1.91
HNRNPUL1 (GeneID 11100)	1	-0.178	-0.232	0.0985
SLC30A2 (GeneID 7780)	1	1.37	1.33	1.81
NBEAL1 (GeneID 65065)	1	-1.63 (active)	-2.39	-2.56
NBEAL1 (GeneID 65065)	2	0.98	1.84	1.11
CCDC3 (GeneID 83643)	1	-0.747	-0.662	-0.921
TSPAN4 (GeneID 7106)	1	-0.151	-1.08	-0.139
TMEM134 (GeneID 80194)	1	0.322	0.193	0.37
HPF1P1 (GeneID 389705)	1	0.518	0.908	0.636
CASP8 (GeneID 841)	1	-1.17	-1.03	-0.584
PRUNE1 (GeneID 58497)	1	2.28 (active)	1.33	1.98
IFT56 (GeneID 79989)	1	-0.121	-0.0156	-0.0243
LOC440201 (retired record) (GeneID 440201)	1	0.239	-0.451	-0.114
NASP (GeneID 4678)	1	0.884	0.566	1.03
TMEM168 (GeneID 64418)	1	1.23	0.369	0.643
PRMT2 (GeneID 3275)	1	-1.7	-1.4	-0.919
SHD (GeneID 56961)	1	0.483	-0.229	0.181
ZBTB1 (GeneID 22890)	1	-0.42	-0.634	-0.664
LOC389392 (retired record) (GeneID 389392)	1	0.177	-0.0644	-0.0156
ADGRF1 (GeneID 266977)	1	-0.226	1.33	0.974
PRDX3 (GeneID 10935)	1	0.452	0.49	1.16
PLSCR3 (GeneID 57048)	1	0.943	1.4	1.33
PCTP (GeneID 58488)	1	-2.39	-0.208	0.0811
MPRIP (GeneID 23164)	1	1.57	0.471	1.77
MEGF11 (GeneID 84465)	1	-1.68	-1.99	-1.43
OTC (GeneID 5009)	1	-0.51	0.623	-0.334
FMN1 (GeneID 342184)	1	-1.03	-1.53	-1.2
PTPN1 (GeneID 5770)	1	0.802	0.809	1.4
HELZ2 (GeneID 85441)	1	-0.23	0.801	0.0124
LOC402522 (retired record) (GeneID 402522)	1	-0.932	-2.12	-1.55
C3orf52 (GeneID 79669)	1	-1.67	-1.28	-1.67
GUSBP1 (GeneID 728411)	1	0.777	0.536	1.02
C11orf65 (GeneID 160140)	1	-1.46	0.0382	-0.642
TSLP (GeneID 85480)	1	-0.18	0.142	-0.791
TNFAIP8 (GeneID 25816)	1	0.83	0.173	5.78
LOC442002 (retired record) (GeneID 442002)	1	-1.62	-1.08	-1.02
ESS2 (GeneID 8220)	1	2.25	0.555	1.55
ESS2 (GeneID 8220)	2	1.61	1.53	-1.2
ZNF37A (GeneID 7587)	1	0.569	0.721	0.72
MRPL4 (GeneID 51073)	1	-0.155	-1.04	-0.441
H2BC14 (GeneID 8342)	1	-0.455	0.0341	0.208
FFAR3 (GeneID 2865)	1	0.0235	0.505	0.205
C11orf16 (GeneID 56673)	1	-0.405	0.329	1.17
USP33 (GeneID 23032)	1	-1.06	-0.848	-0.646
SOD2 (GeneID 6648)	1	0.643	0.204	0.251
SYNC (GeneID 81493)	1	-1.04	-0.328	-0.98
SLBP (GeneID 7884)	1	-0.548	-1.53	0.667
VAT1 (GeneID 10493)	1	-1.46	-1.47	-1.66
GOLGA2P7 (GeneID 388152)	1	0.489	0.374	0.918
LURAP1L (GeneID 286343)	1	1.26	1.55	1.45
GYPC (GeneID 2995)	1	0.928	1.87	1.25
DIAPH3 (GeneID 81624)	1	-1.25	-1.1	-1.38
DYRK3 (GeneID 8444)	1	0.337	0.567	0.277
EEF1A1P16 (GeneID 387845)	1	0.903	0.271	0.461
CIZ1 (GeneID 25792)	1	4.01	-2.32	0.303
MBD2 (GeneID 8932)	1	-0.892	-0.602	-0.871
SLC2A8 (GeneID 29988)	1	0.641	0.617	1.72
ADAM21 (GeneID 8747)	1	-0.629	-0.917	-0.978
C1QTNF3 (GeneID 114899)	1	0.83	-0.225	0.134
CRB3 (GeneID 92359)	1	0.618	1.2	1.86
PEX7 (GeneID 5191)	1	0.477	1.15	0.408
PGLYRP4 (GeneID 57115)	1	-0.193	-0.12	-0.462
SLC7A10 (GeneID 56301)	1	-0.173	-0.263	-0.207
KCNIP3 (GeneID 30818)	1	0.0232	-0.168	-0.0337
SEC16A (GeneID 9919)	1	1.15	1.64	1.35
TMEM45B (GeneID 120224)	1	1.07	0.287	-0.388
MYH4 (GeneID 4622)	1	0.873	0.00205	1.7
CRYAB (GeneID 1410)	1	0.0268	0.223	-0.15
CD300LB (GeneID 124599)	1	-1.33	-1.18	-0.569
RAB25 (GeneID 57111)	1	0.402	-0.0465	0.975
GIN1 (GeneID 54826)	1	2.07 (active)	0.782	2.28
FTLP2 (GeneID 392437)	1	-0.768	-0.419	-0.112
H1-9P (GeneID 373861)	1	0.691	0.752	0.443
LOC440373 (retired record) (GeneID 440373)	1	0.721	0.712	0.374
ADAMTS19 (GeneID 171019)	1	-0.36	-0.333	-0.374

A run of entries from the list above, for reference:
target gene	reagent no.	robust z-score, replicate 1	robust z-score, replicate 2	robust z-score, replicate 3
NBEAL1 (GeneID 65065)	1	-1.63 (active)	-2.39	-2.56
NBEAL1 (GeneID 65065)	2	0.98	1.84	1.11
CCDC3 (GeneID 83643)	1	-0.747	-0.662	-0.921
TSPAN4 (GeneID 7106)	1	-0.151	-1.08	-0.139
TMEM134 (GeneID 80194)	1	0.322	0.193	0.37
HPF1P1 (GeneID 389705)	1	0.518	0.908	0.636
